From PMC9788671
These are yes or no findings as the source states them, for the method shown. In cells and extracts the contact can be indirect. A yes stands for co-enrichment or nearness to the bait. Other partners may have been found.

Sequences of proteins named here, by UniProt entry; tags and fusion partners are left off.
UniProt Q9NZV8: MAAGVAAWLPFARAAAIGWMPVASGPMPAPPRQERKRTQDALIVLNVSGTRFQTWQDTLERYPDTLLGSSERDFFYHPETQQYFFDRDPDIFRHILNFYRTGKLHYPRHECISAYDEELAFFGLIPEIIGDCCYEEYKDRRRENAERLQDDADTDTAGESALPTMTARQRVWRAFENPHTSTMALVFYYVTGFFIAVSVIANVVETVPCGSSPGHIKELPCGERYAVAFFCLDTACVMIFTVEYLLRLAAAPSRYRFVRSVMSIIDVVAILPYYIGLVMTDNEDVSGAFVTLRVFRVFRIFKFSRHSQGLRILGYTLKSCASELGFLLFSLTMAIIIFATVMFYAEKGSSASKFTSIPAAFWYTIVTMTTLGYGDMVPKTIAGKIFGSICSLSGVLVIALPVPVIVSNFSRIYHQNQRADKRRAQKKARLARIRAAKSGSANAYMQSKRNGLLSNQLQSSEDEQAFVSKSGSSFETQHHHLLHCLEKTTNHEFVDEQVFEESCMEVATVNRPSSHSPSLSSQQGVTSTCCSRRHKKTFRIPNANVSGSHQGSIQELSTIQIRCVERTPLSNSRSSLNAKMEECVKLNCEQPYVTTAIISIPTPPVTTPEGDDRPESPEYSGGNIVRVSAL

B1: Mpc2 (protein, UniProt P38718 1-127)
chain: MAAAGARGLRATYHRLMDKVELLLPKKLRPLYNHPAGPRTVFFWAPIMKWGLVCAGLADMARPAEKLSTAQSTVLMATGFIWSRYSLVIIPKNWSLFAVNFFVGSAGASQLFRIWKYNQELKSKGIQ
B2: Vdac2 (protein, UniProt P81155 1-295)
chain: MAECCVPVCQRPICIPPPYADLGKAARDIFNKGFGFGLVKLDVKTKSCSGVEFSTSGSSNTDTGKVSGTLETKYKWCEYGLTFTEKWNTDNTLGTEIAIEDQICQGLKLTFDTTFSPNTGKKSGKIKSAYKRECINLGCDVDFDFAGPAIHGSAVFGYEGWLAGYQMTFDSAKSKLTRSNFAVGYRTGDFQLHTNVNNGTEFGGSIYQKVCEDFDTSVNLAWTSGTNCTRFGIAAKYQLDPTASISAKVNNSSLIGVGYTQTLRPGVKLTLSALVDGKSFNAGGHKLGLALELEA
B3: Dhrs7b (protein, UniProt Q5RJY4 1-325)
chain: MISPSSRKGMLKERAMDLVTQTTILPLLFGCLGIFSLFRLLQRTRSKAYLRNAVVVVTGATSGLGKECARVFHAAGAKVVLCGRNVKALEEFTRELADSSSSQGQTHQPCVVTFDLADPGAIAPAAAEILQCFGYVDILINNAGISYRGAISDTIVDVDRKVMEINYFGPVALTKALLPSMVERKRGHIVAISSIQGKISIPFRSAYAASKHATQAFFDCLRAEMKDSDIEVTVISPGYIHTNLSVNAVTADGSRYGALDKNTAQGRSAVEVAQDIFDAVGKKKKDVLLTDFLPTMAVYIRTLAPRLFFRIMASRARKERKSKNS
B4: Vdac3 (protein, UniProt Q9R1Z0 1-283)
chain: MCSTPTYCDLGKAAKDVFNKGYGFGMVKIDLKTKSCSGVEFSTSGHAYTDTGKASGNLETKYKVCNYGLIFTQKWNTDNTLGTEISWENKLAEGLKLTVDTIFVPNTGKKSGKLKASYRRDCFSVGSKVDIDFSGPTIYGWAVLAFEGWLAGYQMSFDTAKSKLCQNNFALGYKAEDFQLHTHVNDGTEFGGSIYQRVNEKIETSINLAWTAGSNNTRFGIAAKYRLDCRTSLSAKVNNASLIGLGYTQSLRPGVKLTLSALVDGKNFNAGGHKVGLGFELEA
B5: Diras2 (protein, UniProt A0A8I5ZKR8 1-199)
chain: MPEQSNDYRVAVFGAGGVGKSSLVLRFVKGTFRESYIPTVEDTYRQVISCDKSICTLQITDTTGSHQFPAMQRLSISKGHAFILVYSITSRQSLEELKPIYEQICEIKGDVESIPIMLVGNKCDESPNREVQSSEAEALARTWKCAFMETSAKLNHNVKELFQELLNLEKRRTVSLQIDGKKSKQQKRKEKLKGKCVVM
B6: Atp5i (protein, UniProt P29419 1-71)
chain: MVPPVQVSPLIKFGRYSALILGMAYGAKRYSYLKPRAEEERRIAAEEKKRLDELKRIERELAEAEDVSIFK
B7: Ptpmt1 (protein, UniProt P0C089 32-193)
chain: PAHRDWYHRIDHTVLLGALPLRSMTRRLVLDENVRGVITMNEEYETRFLCNTSKEWKNVGVEQLRLSTVDMTGVPTLANLHRGVQFALKYQSLGQCVYVHCKAGRSRSATMVAAYLIQVHNWSPEEAIEAIAKIRSHISIRPSQLEILKEFHKEIAARAAKN
B8: Pcsk1n (protein, UniProt Q9QXU9 34-260)
chain: ARPVKEPRSLSAASAPLAETSTPLRLRRAVPRGEAAGAVQELARALAHLLEAERQERARAEAQEAEDQQARVLAQLLRAWGSPRASDPPLAPDDDPDAPAAQLARALLRARLDPAALAAQLVPAPAPAAALRPRPPVYDDGPTGPDVEDAADETPDVDPELLRYLLGRILTGSSEPEAAPAPRRLRRAVDQDLGPEVPPENVLGALLRVKRLENSSPQAPARRLLPP
B9: Mccc1 (protein, UniProt Q5I0C3 39-715)
chain: TTPGGSITKVLIANRGEIACRVIRTARKMGVQSVAVYSEADRNSMHVDMADEAYSIGPAPSQQSYLAMEKIIQVAKSSAAQAIHPGYGFLSENMEFAEFCKQEGIIFIGPPSTAIRDMGIKSTSKSIMAAAGVPVVEGYHGNDQSDECLKEHAGKIGYPVMIKAIRGGGGKGMRIIRSEKEFQEQLESARREAKKSFNDDAMLIEKFVDTPRHVEVQVFGDHHGNAVYLFERDCSVQRRHQKIIEEAPAPGIDPEVRRRLGEAAVRAAKAVNYVGAGTVEFIMDSKHNFYFMEMNTRLQVEHPVTEMITGTDLVEWQLRIAAGEKIPLSQEEIPLQGHAFEARIYAEDPDNNFMPGAGPLVHLSTPPPDMSTRIETGVRQGDEVSVHYDPMIAKLVVWASDRQSALSKLRYSLHQYNIVGLRTNVDFLLRLSGHSEFEAGNVHTDFIPQHHKDLLPTHSTIAKESVCQAALGLILKEKEMTSAFKLHTQDQFSPFSFSSGRRLNISYTRNMTLRSGKNDIIIAVTYNRDGSYDMQIENKLFRVLGDLSNEDGYTYLKSSVNGVASKSKFILLDNTIYLFSMEGSIEVGIPVPKYLSPVSAEGTQGGTIAPMTGTIEKVFVKAGDRVKAGDALMVMIAMKMEHTIKAPKDGRIKKVFFSEGAQANRHAPLVEFEEEEV
B10: Rab5a (protein, UniProt M0RC99 1-215)
chain: MANRGATRPNGPNTGNKICQFKLVLLGESAVGKSSLVLRFVKGQFHEFQESTIGAAFLTQTVCLDDTTVKFEIWDTAGQERYHSLAPMYYRGAQAAIVVYDITNEESFSRAKNWVKELQRQASPNIVIALSGNKADLANKRAVDFQEAQSYADDNSLLFMETSAKTPMNVNEIFMAIAKKLPKNEPQNPGANSARGRGVDLTEPAQPARSQCCSN
B11: Rab33a (protein, UniProt D3ZCU8 1-237)
chain: MAQPILGHGSLQPASAAGLASLELDSSMDQYVQIRIFKIIVIGDSNVGKTCLTFRFCGGTFPDKTEATIGVDFREKTVEIEGEKIKVQVWDTAGQERFRKSMVEHYYRNVHAVVFVYDVTKMTSFTNLKMWIQECNGHAVPPLVPKVLVGNKCDLREQIQVPSNLALKFADAHNMLLFETSAKDPKESQNVESIFMCLACRLKAQKSLLYRDAERQQGKVQTLEFPQEANSKTSCPC
B12: Slc25a18 (protein, UniProt Q505J6 1-320)
chain: MIACRMSSQDLSITAKLINGGIAGLVGVTCVFPIDLAKTRLQNQQGKDVYKGMTDCLVKTARAEGFLGMYRGAAVNLTLVTPEKAIKLAANDFLRQLLMQDGTQRNLKMEMLAGCGAGICQVVITCPMEMLKIQLQDAGRLAVCQQASASATPTSRPYSTGSTSTHRRPSATLIAWELLRTQGLSGLYRGLGATLLRDIPFSIIYFPLFANLNQLGVSELTGKASFTHSFVAGCAAGSVSAVAVTPLDVLKTRIQTLKKGLGEDTYRGVTDCARKLWTQEGAAAFMKGAGCRALVIAPLFGIAQGVYFIGIGERILKCFE
B13: Stmn1 (protein, UniProt P13668 1-149)
chain: MASSDIQVKELEKRASGQAFELILSPRSKESVPEFPLSPPKKKDLSLEEIQKKLEAAEERRKSHEAEVLKQLAEKREHEKEVLQKAIEENNNFSKMAEEKLTHKMEANKENREAQMAAKLERLREKDKHVEEVRKNKESKDPADETEAD
B14: Sfxn1 (protein, UniProt Q63965 1-322)
chain: MSGEVPPNINIKEPRWDQSTFIGRASHFFTVTDPKNILLTNEQLENARKVVHDYRQGIVPAGLTENELWRAKYAYDSAFHPDTGEKMTLIGRMSAQVPMNMTITGCMMTFYRTTPAVLFWQWINQSFNAVVNYTNRSGDAPLTVNELGTAYVSATTGAVATALGLNALTKHVSPLIGRFVPFAAVAAANCINIPLMRQRELKVGIPVTDENGTRLGESTNAAKQAITQVVISRILMAAPGMAIPPFIMNTLEKKAFLKRFPWMSAPIQVTLVGFCLVFATPLCCALFPQKSSMSVTSLEDDLQASIQKSHPELRRVYFNKGL
B15: Brsk1 (protein, UniProt B2DD29 1-778)
chain: MSSGSKEGGGGSPAYHLPHPHPHPPQHAQYVGPYRLEKTLGKGQTGLVKLGVHCITGQKVAVKIVNREKLSESVLMKVEREIAILKLIEHPHVLKLHDVYENKKYLYLVLEHVSGGELFDYLVKKGRLTPKEARKFFRQIVSALDFCHSYSICHRDLKPENLLLDEKNNIRIADFGMASLQVGDSLLETSCGSPHYACPEVIKGEKYDGRRADMWSCGVILFALLVGALPFDDDNLRQLLEKVKRGVFHMPHFIPPDCQSLLRGMIEVEPEKRLSLEQIQKHPWYLGGKHEPDPCLEPAPGRRVAMRSLPSNGELDPDVLESMASLGCFRDRERLHRELRSEEENQEKMIYYLLLDRKERYPSCEDQDLPPRNDVDPPRKRVDSPMLSRHGKRRPERKSMEVLSITDAGSGGSPVPTRRALEMAQHSQRSRSVSGASTGLSSSPLSSPRSPVFSFSPEPGVGDEARGGGSPTSKTQTLPSRGPRGGGAGEQPPPPSARSTPLPGPPGSPRSSGGTPLHSPLHTPRASPTGTPGTTPPPSPGGGVGGAAWRSRLNSIRNSFLGSPRFHRRKMQVPTAEEMSSLTPESSPELAKRSWFGNFISLDKEEQIFLVLKDKPLSSIKADIVHAFLSIPSLSHSVLSQTSFRAEYKASGGPSVFQKPVRFQVDISSSEGPEPSPRRDGSSGGGIYSVTFTLISGPSRRFKRVVETIQAQLLSTHDQPSVQALADEKNGAQTRPAGTPPRSLQPPPGRPDPDLSSSPRRGPSKDKKLLATNGTPLP
B16: Acp1 (protein, UniProt P41498 1-158)
chain: MAEVGSKSVLFVCLGNICRSPIAEAVFRKLVTDENVSDNWRIDSAATSTYEVGNPPDYRGQNCMKKHGIHMQHIARQITREDFATFDYILCMDESNLRDLNRKSNQVKNCKAKIELLGSYDPQKQLIIEDPYYGNDSDFEVVYQQCLRCCKAFLEKTH

Target: TAP-Kv4.2 (human) (UniProt Q9NZV8)
Assay: affinity purification with mass spectrometry; TAP-Kv4.2 expressed by lentivirus in rat hippocampal neurons, harvested at DIV14; strong lysis buffer (1% Triton X-100, 0.5% deoxycholate in PBS, pH 7.4); streptavidin resin, then calmodulin resin; gel cut into high and low molecular weight fragments; no MS of the control sample

binding	Binder
binds	B1
binds	B2
binds	B3
binds	B4
binds	B5
binds	B6
binds	B7
binds	B8
binds	B9
binds	B10
binds	B11
binds	B12
binds	B13
binds	B14
binds	B15
binds	B16

Target: TAP-Kv4.2 (human) (UniProt Q9NZV8)
Assay: affinity purification with mass spectrometry; TAP-Kv4.2 expressed by lentivirus in rat hippocampal neurons, harvested at DIV14; weak lysis buffer of the kit (0.1% NP-40); streptavidin resin, then calmodulin resin; gel cut into high and low molecular weight fragments; no MS of the control sample

binding	Binder
binds	B9
binds	B15
